# Laboratory results: PubChem BioAssay AID504791 (Drosophila RNAi Screening Center, 2011)
# Test: 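Genes whose knock-down strengthens or weakens small-RNA reporter silencing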 (primary screen)
# Cells: Drosophila S2-derived reporter cells
# Knock-down reagent: long dsRNA against Drosophila genes, about 150-250 ng dsRNA per well (siRNA assay); about 80-120 ng (miRNA assay)
# Time to read-out: about 5 days (siRNA assay); about 4 days (miRNA assay)
# Treatment: copper sulfate induction of reporters: 25 µM (siRNA assay); 200 mM stated (miRNA assay), 1-2 days before reading
# Measured: 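Per-well ratio of Renilla over firefly light, expressed relative to that plate's average ratio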
# Scale: siRNA reporter hit score: higher = 3 marks a strong hit with raised ratio; -3 a strong hit with lowered ratio
# Rule for the call: 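First-pass picks had plate-scaled ratios over 1.5 for the siRNA assay, over 1.6 for the miRNA assay, or under 0.6; two distinct dsRNAs had to score alike on retest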
# The screen tested about 23,000 reagents; shown is an unselected part of those with a known target gene and a result. In the full data, 199 (0.86%) got an active call. 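Plate-scaled ratios behind the calls are not deposited; printed light signals are raw; many rows marked increased or decreased are still called inactive.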 A number with no mark means an inactive call. Names joined by + are all predicted targets of the reagent.
target gene,dsRNA,siRNA reporter hit score,stable siRNA reporter change,miRNA reporter change,"stable assay Renilla, run 1 (luminescence)","stable assay firefly, run 1 (luminescence)"
CG10752,DRSC09799,,,,8210,3.49e5
RhoGAP16F,DRSC20025,,,,7722,4.08e5
CG33303,DRSC02848,,,,6563,3.24e5
p47,DRSC06046,,,,9993,2.12e6
SuUR,DRSC11292,,,,5311,4.03e5
GalT1,DRSC22238,,,,9451,6.05e5
CG6805,DRSC07011,,,,9941,3.46e5
CG34033,DRSC05190,,,,4484,4.37e5
Bub1,DRSC02357,,,,10685,5.43e5
Bub1,DRSC23158,,,,3392,2.58e5
kel,DRSC03554,,,,7846,4.17e5
wor,DRSC03637,,,,7688,4.14e5
CG42748,DRSC03712,,,,6343,3.47e5
CG42748,DRSC03713,,,,6395,2.89e5
CG42748,DRSC03734,,,,6758,3.57e5
Atg3,DRSC10736,,,,5227,4.76e5
Atg3,DRSC21758,,,,8088,4.03e5
14-3-3zeta,DRSC05028,,,reporter ratio raised past the hit cutoff,8236,5.36e5
mRpL52,DRSC06585,,,,5724,3.80e5
CG13659,DRSC14660,,,,7521,3.37e5
nkd,DRSC11376,,,,7350,4.79e5
CG16798,DRSC02517,,,,7710,5.06e5
CG6287,DRSC02947,,,,16651,1.03e6
CG15765,DRSC18071,,,,6866,2.76e5
CG15765,DRSC23026,,,,3911,2.77e5
P5CS,DRSC11831,,,,9220,3.05e5
P5CS,DRSC11832,,,,7886,3.83e5
CG32241,DRSC08100,,,,4255,2.91e5
CG32241,DRSC21518,,,,10131,5.29e5
CG40245 (retired record),DRSC21012,,,,4735,4.01e5
CG13694,DRSC00363,,,,7406,4.39e5
RpS19a,DRSC20281,,,,5543,3.91e5
Ada1-1 + Ada1-2,DRSC01220,,,,5451,4.37e5
Ada1-1 + Ada1-2,DRSC01222,,,,4970,3.78e5
CG31077,DRSC13805,,,,8336,4.69e5
Sar1,DRSC17049,,,,8471,3.13e5
Sar1,DRSC22115,,,,5246,4.16e5
CG31800,DRSC22525,,,,4863,4.46e5
CG8468,DRSC07190,,,,7696,4.63e5
zuc,DRSC02160,,,,6588,1.04e6
CR15280,DRSC01953,,,,6682,4.57e5
CG17219,DRSC00486,,reporter ratio lowered past the hit cutoff,,7656,7.11e5
mRpL41,DRSC06257,,,,5624,3.94e5
spas,DRSC15929,,,,9480,5.93e5
Rpn3,DRSC03318,,,,5147,2.13e5
CG13003,DRSC19522,,,,5688,4.34e5
DptB,DRSC06001,,,,6859,4.31e5
Lcp4,DRSC07458,,,,6248,3.52e5
Lcp4,DRSC25194,,,reporter ratio raised past the hit cutoff (active),,
CG31775 + CG42586,DRSC22289,,,,10525,7.37e5
CG31775 + CG42586,DRSC23266,,,,4903,3.45e5
Rab8,DRSC11261,,,,10741,3.30e5
CG31601,DRSC03678,,,,4519,2.98e5
CG10993,DRSC19362,,,,5310,4.87e5
hiw,DRSC20338,,,,4479,3.14e5
hiw,DRSC20339,,,,3864,2.61e5
RpS20,DRSC16836,,,,7216,4.46e5
CG4914,DRSC10458,,,,8502,3.39e5
CG15408,DRSC00423,,,,7043,3.42e5
CG5958,DRSC02915,,,,7215,3.55e5
CG10663,DRSC09770,,,,7985,4.87e5
CG18585,DRSC02678,,,,1.58e5,2.56e5
CG30416,DRSC04565,,,,6603,3.81e5
CG3760,DRSC04415,,,,2576,2.39e5
CG15203,DRSC19650,,,,5079,2.96e5
CG14453,DRSC11710,,,,4788,3.82e5
CG5194,DRSC10492,,,,8604,3.84e5
CG6834,DRSC16125,,,,5864,3.72e5
mRpL11,DRSC15482,,,,5800,4.08e5
lncRNA:CR40629,DRSC20959,,,,5207,5.19e5
St2,DRSC15142,,,,7198,4.48e5
St2,DRSC22624,,,,4187,4.01e5
Exn,DRSC09673,,,,9717,4.02e5
Exn,DRSC10077,,,,8367,3.80e5
CG12009,DRSC08217,,,,8067,4.57e5
CG9427,DRSC16490,,,,7913,3.99e5
CG7857,DRSC10925,,,,6731,4.39e5
Targ1,DRSC11616,,,,7183,4.73e5
scaf,DRSC04849,,,,54232,1.20e6
Mgat1,DRSC07463,,,,6719,3.61e5
Atg6,DRSC15798,3,,,9630,3.42e5
CG32640 + CG32641,DRSC22885,,,,4015,4.00e5
Hap40,DRSC20085,,,,7682,5.13e5

10 entries from above, reduced to “stable assay Renilla, run 1 (luminescence)”.
hiw [DRSC20339]	3864
RpS20 [DRSC16836]	7216
CG4914 [DRSC10458]	8502
CG15408 [DRSC00423]	7043
CG5958 [DRSC02915]	7215
CG10663 [DRSC09770]	7985
CG18585 [DRSC02678]	1.58e5
CG30416 [DRSC04565]	6603
CG3760 [DRSC04415]	2576
CG15203 [DRSC19650]	5079
